# Data reported in US20060040338A1, “Pharmacological profiling of drugs with cell-based assays” (Odyssey Thera, Inc., priority 2004, published 2006).
# At least one compound was matched to its structure with a doubt left.
# Columns and labels:
# [1] = test system: phospho-CREB; test: phospho-CREB (S133) immunofluorescence high-content assay; type: cell-based, human; conditions: HEK293T cells, isoproterenol 2 micromolar or forskolin 1 micromolar 15 min, anisomycin 10 micrograms/ml 10 min, relative to untreated control
# Method: (§1) We assessed the effects of the above-mentioned compounds on the three pathways and used the results to construct pharmacological profiles for the agents. Specifically we assessed changes in the phosphorylation status of the pathway ‘sentinels’ by constructing high-content, immunofluorescence assays using phospho-specific antibodies targeted to the downstream proteins in the pathways of interest. Human cells (HEK293) were treated with drugs and the phosphorylation status of the three downstream proteins was assessed in the absence or presence of epidermal growth factor (EGF). Cells were then fixed and probed with antisera generated against the phosphorylated forms of CREB (S133), ERK1/2 (phospho T*EY*), or phospho Hsp27 (S78/S82). […]
# (§2) Images were acquired using Discovery-1 High Content Imaging System (Molecular Devices). Background fluorescence due to nonspecific binding by the secondary antibody was established with the use of cells that were incubated with BSA/PBS and without primary antibodies.
# (§3) Raw images in 16-bit grayscale TIFF format were analyzed using ImageJ API/library (http://rsb.info.nih.gov/ij/, NIH, MD). First, images from the fluorescence channels (Hoechst and Alexa 488) were normalized using the ImageJ built-in rolling-ball algorithm [S. R. Sternberg, Biomedical image processing. […]
# [2] = test system: phospho-ERK; test: phospho-ERK (T202/Y204) immunofluorescence high-content assay; type: cell-based, human; conditions: HEK293T cells; isoproterenol 2 micromolar or forskolin 1 micromolar 15 min; anisomycin 10 micrograms/ml 10 min; hEGF 100 ng/ml 5 min
# Method: as §1, §2, §3
smiles,measurement,setting,value
C=C[C@@]1(C)CC(=O)[C@]2(O)[C@@]3(C)[C@@H](O)CCC(C)(C)[C@@H]3[C@H](O)[C@H](OC(C)=O)[C@@]2(C)O1 [forskolin],"phosphorylation of CREB (phospho-CREB intensity), agent alone",[1]; hEGF 100 ng/ml 5 min,increased
same,subcellular distribution of phospho-CREB,[1],predominantly nuclear pattern
same,"ERK/MAP kinase phosphorylation, agent alone",[2],no effects
